Values from PubChem BioAssay AID1259259 (Sanger Institute, 2017)

- Aim: 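Synthetic lethal kinase partners of anchor drugs in colorectal cancer cells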 (primary screen)
- Cell system: SW1463 human colorectal cancer cells
- Reagent: siRNA pool against human genes
- Conditions: DMSO vehicle, or one anchor drug: BYL719 at 1 µM, cetuximab at 5 µg/ml, or trametinib at 10 nM
- Detection: 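Viability as fraction of control pool 2 (non-targeting), replicate mean; knock-down robust z-score without any drug; synergy score averaged for each anchor drug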
- Reading the numbers: robust z-score, knock-down alone: higher = more viable cells after knock-down
- Rule for the call: 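a robust z-score under -3 for knock-down with no drug marks the gene as essential, meaning viability loss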
- Meaning of the calls: active = essential: viability loss from knock-down alone; inactive = no change from knock-down alone
Shown is an unselected part of 794 deposited reagents. In the full data, 9 (1.1%) are marked active. 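Calls rest on knock-down alone, not drug synergy; viability values seem capped at 1.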 A number with no mark means an inactive call. Not all columns of the deposit are shown. No sequences are given here. Not stated in the record: the amount of reagent, the time to read-out.

gene knocked down	PubChem SID	robust z-score, knock-down alone
RBM10 (RNA binding motif protein 10)	SID134313901	-0.128
TAB1 (TGF-beta activated kinase 1 (MAP3K7) binding protein 1)	SID135620883	1.13
STK11 (serine/threonine kinase 11)	SID152153881	-0.463
LMTK2 (lemur tail kinase 2)	SID152147902	0.452
SHPK (sedoheptulokinase)	SID135621260	1.13
EPHA5 (EPH receptor A5)	SID152153658	1.13
EPHB4 (EPH receptor B4)	SID152156322	-0.308
PKM (pyruvate kinase M1/2)	SID135621254	1.13
ADPGK (ADP dependent glucokinase)	SID134311981	-0.82
PDK4 (pyruvate dehydrogenase kinase 4)	SID152155412	-0.107
LMBR1 (limb development membrane protein 1)	SID152149374	0.409
IPMK (inositol polyphosphate multikinase)	SID152147042	-0.404
LATS1 (large tumor suppressor kinase 1)	SID56478819	1.13
IGF1R (insulin like growth factor 1 receptor)	SID152153009	0.522
PRKACB (protein kinase cAMP-activated catalytic subunit beta)	SID56478825	0.863
PHKA2 (phosphorylase kinase regulatory subunit alpha 2)	SID56479176	-0.241
ALPK2 (alpha kinase 2)	SID152151764	0.559
WEE1 (WEE1 G2 checkpoint kinase)	SID152152823	-2.43
CDC7 (cell division cycle 7)	SID56478594	-0.0643
HK1 (hexokinase 1)	SID56479165	0.175
DCLK2 (doublecortin like kinase 2)	SID152154613	1.13
NEK9 (NIMA related kinase 9)	SID56478903	0.78
CPNE3 (copine 3)	SID134315878	0.966
MARK3 (microtubule affinity regulating kinase 3)	SID56478669	-0.428
PIP5K1C (phosphatidylinositol-4-phosphate 5-kinase type 1 gamma)	SID134310630	-0.492
PKDCC (protein kinase domain containing, cytoplasmic)	SID152147854	0.769
BPTF (bromodomain PHD finger transcription factor)	SID152156181	-1.63
CLK1 (CDC like kinase 1)	SID152154455	1.13
EPHB6 (EPH receptor B6)	SID152155826	-0.489
PBK (PDZ binding kinase)	SID56479058	1.13
TCF12 (transcription factor 12)	SID134311750	1.13
DYRK3 (dual specificity tyrosine phosphorylation regulated kinase 3)	SID152153037	-0.48
PI4KB (phosphatidylinositol 4-kinase beta)	SID135621252	1.13
HK2 (hexokinase 2)	SID56479103	-0.93
SCYL3 (SCY1 like pseudokinase 3)	SID56479033	-2.4
WNK4 (WNK lysine deficient protein kinase 4)	SID56478961	-0.723
MAP4K5 (mitogen-activated protein kinase kinase kinase kinase 5)	SID56478702	0.721
NRBP2 (nuclear receptor binding protein 2)	SID56479019	-1.46
DUSP21 (dual specificity phosphatase 21)	SID134312829	-1.23
PSTK (phosphoseryl-tRNA kinase)	SID134320501	1.13
CDKN1A (cyclin dependent kinase inhibitor 1A)	SID56478654	-0.845
ADCK5 (aarF domain containing kinase 5)	SID56479281	1.13
GRK3 (G protein-coupled receptor kinase 3)	SID135620814	1.13
ARAF (A-Raf proto-oncogene, serine/threonine kinase)	SID152151166	0.294
ITK (IL2 inducible T cell kinase)	SID135620623	0.179
SCYL1 (SCY1 like pseudokinase 1)	SID152146872	1.13
PLK4 (polo like kinase 4)	SID152155543	-0.815
GCK (glucokinase)	SID56479241	-0.35
JAK1 (Janus kinase 1)	SID152154758	-0.644
MARK4 (microtubule affinity regulating kinase 4)	SID56479022	0.945

A run of entries from the list above:
gene knocked down	PubChem SID	robust z-score, knock-down alone
NRBP2 (nuclear receptor binding protein 2)	SID56479019	-1.46
DUSP21 (dual specificity phosphatase 21)	SID134312829	-1.23
PSTK (phosphoseryl-tRNA kinase)	SID134320501	1.13
CDKN1A (cyclin dependent kinase inhibitor 1A)	SID56478654	-0.845
ADCK5 (aarF domain containing kinase 5)	SID56479281	1.13
GRK3 (G protein-coupled receptor kinase 3)	SID135620814	1.13
ARAF (A-Raf proto-oncogene, serine/threonine kinase)	SID152151166	0.294
